Where a name gives a salt, the structure may show the parent alone. This is one part of the list. Hit calls seldom repeat between salt and free forms of one compound.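 Kinases, fused to nanoluciferase, were expressed in K562 cells; luminescence was measured every 4 h from 2 to 18 h as percent of control (DMSO = 100%, positive control = 0%). A time point is decreased if signal falls significantly (2 sigma). Hits were called by the authors by a rule that is not shown; the count of time points alone does not decide it.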
How the values were obtained:
Experiment in all cases: number of time points (of 5) at which kinase-Nluc abundance scored as decreased, DMSO-normalised (count); higher = more persistent destabilization
Conditions in all cases: K562; 2-18 h
[1] = biological target: PRKCA (UniProt P17252)
[2] = biological target: PTK2 (UniProt Q05397)
[3] = biological target: PTK2B (UniProt Q14289)
[4] = biological target: RAF1 (UniProt P04049)
[5] = biological target: RAF1_S257L (clone: RAF1_mut) (UniProt P04049)
[6] = biological target: RET (UniProt P07949)
[7] = biological target: RET_M918T (clone: RET_mut) (UniProt P07949)
[8] = biological target: RIOK1 (UniProt Q9BRS2)
[9] = biological target: RIPK1 (UniProt Q13546)
[10] = biological target: RIPK2 (UniProt O43353)
[11] = biological target: ROR2 (UniProt Q01974)
[12] = biological target: RPS6KA1 (UniProt Q15418)
[13] = biological target: SPHK1 (UniProt Q9NYA1)
[14] = biological target: SRC (UniProt P12931)
[15] = biological target: STK24 (UniProt Q9Y6E0)
[16] = biological target: STK38 (UniProt Q15208)
[17] = biological target: TEC (UniProt P42680)
[18] = biological target: TYK2 (UniProt P29597)
[19] = biological target: ULK3 (UniProt Q6PHR2)
[20] = biological target: SYK (UniProt P43405)

Sequences of proteins named here, by UniProt entry; tags and fusion partners are left off. A change or cut given only in a name is not applied to a line headed by its entry.
UniProt Q05397, whole entry, looked up: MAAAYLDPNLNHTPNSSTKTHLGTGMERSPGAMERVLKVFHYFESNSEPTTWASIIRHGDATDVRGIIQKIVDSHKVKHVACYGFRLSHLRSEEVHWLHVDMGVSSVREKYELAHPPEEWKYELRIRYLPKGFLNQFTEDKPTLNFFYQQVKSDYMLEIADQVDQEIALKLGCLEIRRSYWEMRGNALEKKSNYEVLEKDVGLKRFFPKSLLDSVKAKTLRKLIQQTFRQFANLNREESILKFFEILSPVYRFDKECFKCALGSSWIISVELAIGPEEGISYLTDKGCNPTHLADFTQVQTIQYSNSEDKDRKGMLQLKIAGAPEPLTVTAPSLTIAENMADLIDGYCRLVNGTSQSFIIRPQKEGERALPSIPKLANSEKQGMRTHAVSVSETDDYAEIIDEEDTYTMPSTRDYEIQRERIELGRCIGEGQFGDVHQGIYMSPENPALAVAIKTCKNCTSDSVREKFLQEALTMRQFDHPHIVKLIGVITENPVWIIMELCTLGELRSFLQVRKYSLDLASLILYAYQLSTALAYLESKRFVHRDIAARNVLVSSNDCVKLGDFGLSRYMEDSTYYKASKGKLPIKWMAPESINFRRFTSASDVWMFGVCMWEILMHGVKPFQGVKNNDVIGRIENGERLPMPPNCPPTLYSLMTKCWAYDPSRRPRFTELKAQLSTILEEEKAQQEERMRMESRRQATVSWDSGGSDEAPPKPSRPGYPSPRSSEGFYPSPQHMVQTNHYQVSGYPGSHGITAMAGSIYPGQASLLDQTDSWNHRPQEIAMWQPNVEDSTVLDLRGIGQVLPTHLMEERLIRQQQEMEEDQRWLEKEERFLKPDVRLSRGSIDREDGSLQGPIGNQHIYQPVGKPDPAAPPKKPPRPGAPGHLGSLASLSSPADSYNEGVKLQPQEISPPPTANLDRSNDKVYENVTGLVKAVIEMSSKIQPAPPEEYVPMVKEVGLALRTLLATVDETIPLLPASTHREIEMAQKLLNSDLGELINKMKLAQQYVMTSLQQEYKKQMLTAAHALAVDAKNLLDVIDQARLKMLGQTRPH
UniProt Q14289, whole entry, looked up: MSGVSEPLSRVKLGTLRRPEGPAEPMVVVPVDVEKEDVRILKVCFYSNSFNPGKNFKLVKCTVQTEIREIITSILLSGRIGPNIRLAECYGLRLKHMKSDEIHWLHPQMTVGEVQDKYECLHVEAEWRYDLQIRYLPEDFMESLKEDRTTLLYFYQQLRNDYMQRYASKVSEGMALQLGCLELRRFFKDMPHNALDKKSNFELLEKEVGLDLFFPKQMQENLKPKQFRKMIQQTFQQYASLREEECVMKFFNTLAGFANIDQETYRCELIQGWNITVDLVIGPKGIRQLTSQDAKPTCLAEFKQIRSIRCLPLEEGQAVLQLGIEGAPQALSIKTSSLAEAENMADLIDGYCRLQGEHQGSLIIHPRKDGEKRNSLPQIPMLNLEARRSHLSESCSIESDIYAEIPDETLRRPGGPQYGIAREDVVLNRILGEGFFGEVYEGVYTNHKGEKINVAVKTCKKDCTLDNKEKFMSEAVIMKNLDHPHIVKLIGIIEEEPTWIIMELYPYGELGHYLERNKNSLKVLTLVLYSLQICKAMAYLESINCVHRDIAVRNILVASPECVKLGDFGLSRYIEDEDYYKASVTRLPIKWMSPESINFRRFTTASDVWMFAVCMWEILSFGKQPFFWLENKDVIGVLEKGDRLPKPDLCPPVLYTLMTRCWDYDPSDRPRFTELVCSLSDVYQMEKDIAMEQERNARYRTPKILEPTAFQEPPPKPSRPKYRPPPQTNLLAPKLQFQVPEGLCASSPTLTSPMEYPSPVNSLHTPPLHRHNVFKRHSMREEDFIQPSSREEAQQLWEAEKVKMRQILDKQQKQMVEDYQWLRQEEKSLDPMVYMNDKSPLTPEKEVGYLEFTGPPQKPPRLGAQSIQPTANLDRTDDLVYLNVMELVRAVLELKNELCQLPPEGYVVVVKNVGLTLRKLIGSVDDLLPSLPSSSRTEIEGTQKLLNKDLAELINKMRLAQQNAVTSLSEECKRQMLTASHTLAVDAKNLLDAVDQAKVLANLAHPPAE
UniProt P07949, whole entry, looked up: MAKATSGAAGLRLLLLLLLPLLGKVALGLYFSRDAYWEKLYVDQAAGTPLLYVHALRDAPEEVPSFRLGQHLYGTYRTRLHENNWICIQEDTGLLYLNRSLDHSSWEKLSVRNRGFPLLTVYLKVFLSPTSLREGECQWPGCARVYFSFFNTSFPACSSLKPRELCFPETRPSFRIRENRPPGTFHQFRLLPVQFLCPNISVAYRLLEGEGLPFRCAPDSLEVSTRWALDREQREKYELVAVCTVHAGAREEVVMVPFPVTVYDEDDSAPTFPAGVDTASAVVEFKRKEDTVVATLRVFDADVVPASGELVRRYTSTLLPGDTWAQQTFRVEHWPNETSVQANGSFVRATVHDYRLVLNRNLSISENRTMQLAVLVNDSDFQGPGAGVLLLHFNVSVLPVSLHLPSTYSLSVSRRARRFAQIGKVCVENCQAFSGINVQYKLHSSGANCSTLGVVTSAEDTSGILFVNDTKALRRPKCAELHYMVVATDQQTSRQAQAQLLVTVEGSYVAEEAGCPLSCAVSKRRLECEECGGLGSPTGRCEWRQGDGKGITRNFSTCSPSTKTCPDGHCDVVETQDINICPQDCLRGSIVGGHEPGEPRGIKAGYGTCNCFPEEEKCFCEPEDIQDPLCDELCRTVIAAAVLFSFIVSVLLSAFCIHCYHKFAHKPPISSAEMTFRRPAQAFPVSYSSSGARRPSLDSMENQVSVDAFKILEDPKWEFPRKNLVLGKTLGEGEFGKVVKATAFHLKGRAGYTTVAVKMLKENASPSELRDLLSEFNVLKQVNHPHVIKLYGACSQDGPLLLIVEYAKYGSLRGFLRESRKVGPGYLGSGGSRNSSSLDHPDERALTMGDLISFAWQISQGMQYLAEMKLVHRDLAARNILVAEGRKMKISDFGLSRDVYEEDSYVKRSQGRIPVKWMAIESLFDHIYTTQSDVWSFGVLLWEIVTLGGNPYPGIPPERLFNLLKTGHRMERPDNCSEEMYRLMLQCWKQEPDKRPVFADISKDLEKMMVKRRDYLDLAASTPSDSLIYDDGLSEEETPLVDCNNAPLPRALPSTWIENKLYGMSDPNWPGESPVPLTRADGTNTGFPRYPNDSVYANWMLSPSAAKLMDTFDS
UniProt P07949, whole entry M918T, looked up: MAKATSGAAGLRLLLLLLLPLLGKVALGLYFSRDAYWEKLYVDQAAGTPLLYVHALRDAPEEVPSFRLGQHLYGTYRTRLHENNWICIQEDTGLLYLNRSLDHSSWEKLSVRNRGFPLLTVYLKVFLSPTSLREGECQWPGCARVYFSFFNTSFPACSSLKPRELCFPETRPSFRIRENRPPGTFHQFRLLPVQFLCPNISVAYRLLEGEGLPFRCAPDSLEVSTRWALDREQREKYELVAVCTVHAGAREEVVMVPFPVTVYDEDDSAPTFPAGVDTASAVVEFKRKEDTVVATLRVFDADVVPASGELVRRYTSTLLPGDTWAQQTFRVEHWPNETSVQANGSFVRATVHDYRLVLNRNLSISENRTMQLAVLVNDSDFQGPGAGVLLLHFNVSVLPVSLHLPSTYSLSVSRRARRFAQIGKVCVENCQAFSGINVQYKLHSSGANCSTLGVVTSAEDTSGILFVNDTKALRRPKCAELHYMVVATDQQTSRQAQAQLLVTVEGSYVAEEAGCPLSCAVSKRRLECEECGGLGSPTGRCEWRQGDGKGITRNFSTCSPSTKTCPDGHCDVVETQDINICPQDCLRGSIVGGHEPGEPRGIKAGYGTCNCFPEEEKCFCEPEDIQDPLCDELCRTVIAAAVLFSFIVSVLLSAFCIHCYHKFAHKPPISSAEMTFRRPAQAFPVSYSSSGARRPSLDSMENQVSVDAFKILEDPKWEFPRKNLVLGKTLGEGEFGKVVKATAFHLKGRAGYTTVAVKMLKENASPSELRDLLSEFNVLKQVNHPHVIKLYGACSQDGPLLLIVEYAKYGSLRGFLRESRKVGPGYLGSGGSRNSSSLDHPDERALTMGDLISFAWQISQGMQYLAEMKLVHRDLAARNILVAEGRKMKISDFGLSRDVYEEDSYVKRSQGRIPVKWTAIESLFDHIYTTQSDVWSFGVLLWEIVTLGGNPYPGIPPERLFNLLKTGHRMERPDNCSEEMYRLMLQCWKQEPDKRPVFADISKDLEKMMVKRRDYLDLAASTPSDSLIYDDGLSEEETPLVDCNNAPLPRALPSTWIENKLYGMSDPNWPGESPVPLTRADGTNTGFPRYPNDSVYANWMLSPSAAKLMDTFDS
UniProt Q13546: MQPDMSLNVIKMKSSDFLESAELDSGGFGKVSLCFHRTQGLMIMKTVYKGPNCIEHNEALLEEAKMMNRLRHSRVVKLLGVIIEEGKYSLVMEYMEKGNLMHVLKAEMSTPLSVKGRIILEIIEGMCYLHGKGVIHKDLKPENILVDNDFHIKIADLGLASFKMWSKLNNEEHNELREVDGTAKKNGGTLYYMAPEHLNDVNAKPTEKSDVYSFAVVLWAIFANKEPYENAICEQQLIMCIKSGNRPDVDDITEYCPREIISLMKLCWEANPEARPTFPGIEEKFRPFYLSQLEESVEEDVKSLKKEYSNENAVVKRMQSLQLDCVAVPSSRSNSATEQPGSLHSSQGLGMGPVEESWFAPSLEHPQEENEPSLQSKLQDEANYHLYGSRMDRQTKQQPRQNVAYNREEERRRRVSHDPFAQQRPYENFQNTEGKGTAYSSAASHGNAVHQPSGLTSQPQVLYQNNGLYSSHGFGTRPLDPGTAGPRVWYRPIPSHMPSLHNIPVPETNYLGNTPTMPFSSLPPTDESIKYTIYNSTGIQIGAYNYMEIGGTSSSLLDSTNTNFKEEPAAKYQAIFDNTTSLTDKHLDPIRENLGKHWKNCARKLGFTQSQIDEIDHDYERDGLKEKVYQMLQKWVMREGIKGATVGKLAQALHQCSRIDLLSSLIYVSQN
UniProt Q15208: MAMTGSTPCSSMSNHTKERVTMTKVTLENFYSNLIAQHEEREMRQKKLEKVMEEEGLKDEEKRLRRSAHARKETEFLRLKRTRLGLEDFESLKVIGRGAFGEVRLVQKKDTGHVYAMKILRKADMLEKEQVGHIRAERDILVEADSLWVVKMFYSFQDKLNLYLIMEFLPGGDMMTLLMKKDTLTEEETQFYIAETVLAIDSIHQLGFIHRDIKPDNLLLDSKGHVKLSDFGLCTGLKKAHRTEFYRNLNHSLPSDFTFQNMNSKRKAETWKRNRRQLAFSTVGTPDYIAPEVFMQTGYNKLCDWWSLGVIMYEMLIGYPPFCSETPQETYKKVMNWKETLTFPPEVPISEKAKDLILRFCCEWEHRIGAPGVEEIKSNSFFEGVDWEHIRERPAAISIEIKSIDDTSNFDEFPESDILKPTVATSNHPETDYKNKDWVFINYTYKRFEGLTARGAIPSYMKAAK
UniProt P42680: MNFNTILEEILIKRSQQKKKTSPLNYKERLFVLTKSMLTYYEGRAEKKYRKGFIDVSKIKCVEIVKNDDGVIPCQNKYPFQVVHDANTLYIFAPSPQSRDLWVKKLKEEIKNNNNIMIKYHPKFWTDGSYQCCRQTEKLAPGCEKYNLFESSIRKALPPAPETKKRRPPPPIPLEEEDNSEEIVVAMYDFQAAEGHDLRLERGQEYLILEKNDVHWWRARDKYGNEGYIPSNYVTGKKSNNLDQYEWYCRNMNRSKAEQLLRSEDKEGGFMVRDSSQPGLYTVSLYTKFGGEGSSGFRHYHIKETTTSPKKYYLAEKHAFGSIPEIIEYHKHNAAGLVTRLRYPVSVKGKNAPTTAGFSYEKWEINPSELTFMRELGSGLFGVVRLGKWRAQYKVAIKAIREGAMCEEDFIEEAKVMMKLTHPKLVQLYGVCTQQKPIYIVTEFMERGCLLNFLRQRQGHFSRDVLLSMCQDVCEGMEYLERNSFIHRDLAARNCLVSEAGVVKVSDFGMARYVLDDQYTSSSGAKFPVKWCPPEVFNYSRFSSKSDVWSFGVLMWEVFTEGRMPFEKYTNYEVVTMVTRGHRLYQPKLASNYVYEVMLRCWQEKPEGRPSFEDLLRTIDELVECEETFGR
UniProt Q6PHR2: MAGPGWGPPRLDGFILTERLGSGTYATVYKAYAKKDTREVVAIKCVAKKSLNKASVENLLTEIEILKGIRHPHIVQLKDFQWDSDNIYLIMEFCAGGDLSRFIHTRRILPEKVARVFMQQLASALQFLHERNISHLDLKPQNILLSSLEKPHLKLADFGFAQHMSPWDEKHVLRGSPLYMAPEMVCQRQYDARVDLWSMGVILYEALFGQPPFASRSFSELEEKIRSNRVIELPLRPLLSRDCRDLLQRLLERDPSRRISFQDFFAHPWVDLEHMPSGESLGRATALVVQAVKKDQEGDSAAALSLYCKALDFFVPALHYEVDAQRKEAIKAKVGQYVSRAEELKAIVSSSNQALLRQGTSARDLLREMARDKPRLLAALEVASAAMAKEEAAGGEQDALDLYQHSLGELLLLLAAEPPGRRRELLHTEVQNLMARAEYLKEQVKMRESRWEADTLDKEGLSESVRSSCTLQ

Structure (SMILES)	number of time points [1]	number of time points [2]	number of time points [3]	number of time points [4]	number of time points [5]	number of time points [6]	number of time points [7]	number of time points [8]	number of time points [9]	number of time points [10]	number of time points [11]	number of time points [12]	number of time points [13]	number of time points [14]	number of time points [15]	number of time points [16]	number of time points [17]	number of time points [18]	number of time points [19]	number of time points [20]
Cn1cc(-c2nc(N[C@@H]3CCCC[C@@H]3N)c(F)c3c2C(=O)NC3)cn1 [TAK-659 (hydrochloride)] (2 µM)	0	0	0	0	0	0	0	0	0	0	0	0	0	0	0	0	0	0	0	–
CN1C(=O)[C@@H](NC(=O)c2cc(Cc3ccccc3)on2)COc2ccccc21 (10 µM)	0	0	0	0	0	0	0	0	–	0	0	0	0	0	0	0	0	0	0	0
CN1CCN(Cc2ccc(-c3cn(C4CCC(O)CC4)c4nc(NCCC5CC5)ncc34)cc2)CC1 (configuration not stated) (2.5 µM)	0	1	0	2	2	0	0	1	0	0	0	0	0	0	0	0	0	3	2	0
NC(=O)c1cnc(N[C@@H]2CCCC[C@@H]2N)nc1Nc1cccc(-n2nccn2)c1 (2.5 µM)	0	0	0	0	0	0	0	0	0	0	0	0	0	0	0	0	0	0	0	–
C=CC(=O)Nc1cccc(Oc2nc(Nc3ccc(N4CCN(C)CC4)cc3OC)ncc2Cl)c1 (10 µM)	0	0	0	0	0	0	0	0	0	0	0	0	0	0	0	0	0	0	0	0
CNCc1cc(Oc2ccc3c(ccn3C(=O)Nc3cc(C(F)(F)F)n(C)n3)c2)ncn1 [Acrizanib] (10 µM)	0	0	0	0	0	0	0	0	1	0	0	0	0	0	0	0	0	0	0	0
Cc1n[nH]c2ncc(C(=O)N3CCC[C@H]3c3ccc(Cl)cc3)cc12 (10 µM)	0	0	0	0	0	0	0	0	0	0	0	0	0	0	0	0	0	0	0	0
Nc1[nH]nc2nnc(-c3c(-c4ccccc4)nn4ccccc34)cc12 (10 µM)	0	0	0	0	0	0	0	0	0	0	0	0	0	0	0	0	0	0	0	0
Cc1nn(CC(F)(F)F)cc1Nc1ncc(Br)c(NCc2ccc(S(N)(=O)=O)cc2)n1 (10 µM)	0	0	0	0	0	0	0	0	0	0	0	0	0	0	0	0	0	0	0	0
O=C(COc1ccc(Cl)cc1)NC1CCC(NC(=O)COc2ccc(Cl)cc2)CC1 (stereo not drawn) [ISRIB (trans-isomer)] (10 µM)	0	0	0	0	0	0	0	0	0	0	0	0	0	0	0	0	0	0	0	0
Cn1c(N2CCO[C@@H](c3ccc(F)cc3)C2)nc(-c2ccncn2)cc1=O (10 µM)	0	0	0	0	0	0	0	0	0	0	0	0	0	0	0	0	0	0	0	0
N#Cc1cc(N2CCC(C(=O)N3N=CC[C@H]3c3cc(F)cc(F)c3)CC2)ncn1 (10 µM)	0	0	0	0	0	0	0	0	–	0	0	0	0	0	0	0	0	0	0	0
Cn1cnc2c(F)c(Nc3ccc(Br)cc3F)c(C(=O)NOCCO)cc21 [Binimetinib] (10 µM)	0	0	0	0	4	0	0	0	0	0	0	0	0	0	0	0	0	0	0	0
CCc1cc(Nc2nccc(-c3c(-c4ccc(OC)c(C(=O)Nc5c(F)cccc5F)c4)nc4ccccn34)n2)c(OC)cc1N1CCC(N2CCN(S(C)(=O)=O)CC2)CC1 (2.5 µM)	0	0	–	0	0	0	0	0	0	0	0	0	0	0	0	0	0	0	0	0
CN(C[C@@H]1COCCO1)S(=O)(=O)Nc1ccc2ccc3ncc(-c4cnn(C)c4)cc3c(=O)c2c1 (2.5 µM)	0	0	0	0	0	–	–	0	0	0	0	0	0	0	0	0	0	0	0	0
O=[N+]([O-])c1ccc(-c2nc(-c3ccc(F)cc3)c(-c3ccncc3)[nH]2)cc1 (10 µM)	0	–	0	0	0	0	0	0	0	0	0	0	5	0	0	1	0	5	0	0

Copied from the entries so far for reference:
Structure (SMILES)	number of time points [1]	number of time points [2]	number of time points [3]	number of time points [4]	number of time points [5]	number of time points [6]	number of time points [7]	number of time points [8]	number of time points [9]	number of time points [10]	number of time points [11]	number of time points [12]	number of time points [13]	number of time points [14]	number of time points [15]	number of time points [16]	number of time points [17]	number of time points [18]	number of time points [19]	number of time points [20]
Cc1n[nH]c2ncc(C(=O)N3CCC[C@H]3c3ccc(Cl)cc3)cc12 (10 µM)	0	0	0	0	0	0	0	0	0	0	0	0	0	0	0	0	0	0	0	0
Nc1[nH]nc2nnc(-c3c(-c4ccccc4)nn4ccccc34)cc12 (10 µM)	0	0	0	0	0	0	0	0	0	0	0	0	0	0	0	0	0	0	0	0

Reference: the supplement of paper PMC12823440, “Inhibitors supercharge kinase turnover through native proteolytic circuits” (Nature, 2025)
